Drawing on PubChem BioAssay AID2685 (National Center for Advancing Translational Sciences (NCATS), 2010), this text covers cell number change and AC50 for 59 molecules.

The list shows a part of the results. These are further read-outs of the screen, such as a control signal, another cell line or another target. No call is given for them. Compounds called inactive in the main read-out are mostly missing here. The note in brackets gives the kind of curve behind each potency; many fits are weak.

The test can be described thus: qHTS Assay for Lipid Storage Modulators in Drosophila S3 Cells.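 As to cell number change: cells counted by Cell Tracker Red CMTPX staining in the red channel.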 The conditions noted are these: BODIPY lipid droplet fluorescence, 18-24 h; for cell number change: measured here: cell count max response, cells fed with added oleic acid. In outline:
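Drosophila S3 cells got compounds at several concentrations plus oleic acid (400 uM solution). Laser-scanning cytometry with 488 nm excitation read lipid droplets at 500-530 nm and cells at 575-640 nm. Percent activity was relative to 20 uM Triacsin C.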

The mark [1] stands for this setting: measured here: cell number channel AC50, cells fed with added oleic acid.
The mark [2] stands for this setting: measured here: lipid fluorescence (Fed channel) AC50, cells fed with added oleic acid.

In the case of `COc1ccc(CNC(=O)c2ccc(C)o2)cc1`, the cell number change is 7.11%. Moreover, under setting [1], the AC50 was 0.13 µM [rising, full curve, poor fit]. Also, the AC50 under setting [2] was 0.092 µM [rising, full curve, poor fit].

`COc1ccc(NC(=O)Cn2c(=O)n(-c3ccc(CC(=O)NCc4ccco4)cc3)c(=O)c3ccccc32)cc1`: the cell number change came out at 10.1%. In addition, under setting [1], the AC50 was 0.651 µM [rising, single point].

In the case of `COc1ccccc1CNC(=O)COC(=O)CSc1ccc(F)cc1`, the cell number change was -74.7%. Further, the AC50 under setting [1] was 25.9 µM [falling, single point].

As for `CCN1CCN(C(=O)NC(c2ccc(C)c(F)c2)C(Cl)Cl)CC1` (stereo not drawn), the cell number change was -2.46%.

Consider `Cc1nn(-c2ccccc2)c(C)c1/C=N/NC(=O)CSc1nc2ccccc2c(=O)n1-c1ccc(Br)cc1`, for which, under setting [1], the AC50 was 0.517 µM [rising, single point].

Consider `COc1ccc(C(=O)Nc2cc(C(F)(F)F)ccc2Cl)cc1OC`, for which the cell number change was -6.87%. For the same molecule, the AC50 under setting [2] was 0.00517 µM [rising, full curve, poor fit].

In the case of `COCCNc1ncnc2c1cnn2Cc1ccc(Cl)cc1`, the AC50 under setting [2] is 0.731 µM [rising, single point].

Consider `O=C(NCCC1CCCCN1S(=O)(=O)c1ccc(Cl)cc1)C(=O)NCc1ccco1` (stereo not drawn), for which the cell number change is -34.9%. Further, under setting [1], the AC50 was 9.2 µM [falling, partial curve].

Regarding `CC(=O)NC1C(Oc2ccccc2C)OC2COC(c3ccco3)OC2C1O` (stereo not drawn), the cell number change was -55.4%. The AC50 under setting [1] is 5.8 µM [falling, full curve]. Moreover, the AC50 under setting [2] is 20.6 µM [falling, single point].

For the molecule `CC(C)c1ccc(CNNC(=O)c2ccccc2)cc1`, the cell number change turned out to be 3.62%. For the same molecule, the AC50 under setting [2] was 29.1 µM [falling, single point].

With `O=C(COC(=O)c1ccc2ccccc2c1O)Nc1ccccc1`, the cell number change came to 39.4%. The concentration at half-maximal activity (AC50) under setting [1] was 18.4 µM [rising, single point].

Consider `COc1cc(C2CC(=O)N3CN(Cc4ccccc4)CSC3=C2C#N)ccc1OCc1ccccc1` (stereo not drawn), for which the cell number change turned out to be 13.9%. For the same molecule, the AC50 under setting [2] is 0.164 µM [rising, full curve, poor fit].

As to `O=C(NCCC1CCCCN1S(=O)(=O)c1ccccc1)C(=O)NCCN1CCOCC1` (stereo not drawn), the cell number change is -12.3%. Under setting [2], the AC50 is 0.0731 µM [falling, full curve, poor fit].

Consider `Cc1ccc(-n2c(SCC(=O)N(C)C3CCS(=O)(=O)C3)nc3ccccc3c2=O)cc1` (stereo not drawn), for which the cell number change stood at 41.1%. Besides, under setting [1], the AC50 is 8.2 µM [rising, partial curve, poor fit].

`COc1ccc(-c2nnc(C3CCN(S(=O)(=O)c4ccccc4)CC3)o2)cc1`: the cell number change is -1.44%. Further, the AC50 under setting [2] is 13 µM [falling, single point].

As for `COc1ccc(S(=O)(=O)NC2CC2)cc1C(=O)N1CCOCC1`, the cell number change was found to be 24.5%. Besides, the AC50 under setting [2] was 0.326 µM [rising, partial curve, poor fit].

As to `O=C(c1cccnc1NCc1ccccc1)N1CCOCC1`, the cell number change is -10.2%. Besides, under setting [1], the AC50 is 6.51 µM [falling, single point]. In addition, the AC50 under setting [2] is 6.51 µM [falling, single point].

Regarding `Cc1cc(C)c(C#N)c(OCc2ccc(Cl)nc2)n1`, the cell number change was found to be 22%.

As for `COc1ccc(CN(C)CC(O)COc2ccc(C(=O)c3ccccc3)cc2)c(OC)c1OC` (stereo not drawn), the cell number change was 22.6%. The AC50 under setting [1] was 0.00651 µM [rising, full curve, poor fit]. For the same molecule, under setting [2], the AC50 was 23.1 µM [falling, partial curve].

On to `Clc1ccc(N=c2ssnc2Cl)cc1`, for which the AC50 under setting [1] was 0.164 µM [falling, partial curve] and the AC50 under setting [2] was 0.731 µM [falling, full curve].

As for `CCCc1cc(=O)[nH]c(SCC(=O)N2N=C(c3ccc(Cl)cc3)CC2c2ccco2)n1` (stereo not drawn), the cell number change is -17.8%. Further, the AC50 under setting [2] is 0.517 µM [falling, full curve, poor fit].

With `CCCNC(=S)N1CCC(n2cnc3ccccc32)CC1`, the cell number change was -14.5%.

Consider `CCCCCCOc1ccc(C(CC(=O)O)C(N)=O)cc1` (stereo not drawn), for which the cell number change is 1.84%.

Consider `COC(=O)c1ccccc1NC(=O)NCCc1ccc(OC)c(OC)c1`, for which the cell number change is -14%. Besides, under setting [2], the AC50 is 4.11 µM [falling, partial curve].

Take `COc1ccc(-n2c(O)c(C=Nc3ccccc3)c3ccccc3c2=O)cc1OC`: the cell number change is -44.3%. Moreover, under setting [1], the AC50 is 16.4 µM [falling, single point]. Moreover, under setting [2], the AC50 was 29.1 µM [falling, single point].

With `O=C(Cn1nnc2ccccc2c1=O)N[C@@H](Cc1ccccc1)C(=O)O`, the cell number change is 27.1%.

Regarding `COc1ccc(C(=O)OC(C)C(=O)NC2CCCC2)cc1S(=O)(=O)N1CCOCC1` (stereo not drawn), the cell number change was -3.24%. In addition, the AC50 under setting [2] was 0.0517 µM [rising, full curve].

As to `CN(Cc1c(F)cccc1Cl)S(=O)(=O)c1cccs1`, the AC50 under setting [2] is 2.51 µM [falling, full curve].

As for `CCOc1ccc(-c2n[nH]c(C)c2-c2ccccc2OC)c(O)c1`, the cell number change was -36.9%. Moreover, the AC50 under setting [1] is 4.11 µM [falling, full curve, poor fit]. Also, the AC50 under setting [2] is 2.31 µM [falling, full curve].

With `O=C(Nc1nccs1)c1cccc(NC(=O)C2CC2)c1`, the AC50 under setting [1] is 2.06 µM [rising, partial curve] and the concentration at half-maximal activity (AC50) under setting [2] was 2.31 µM [rising, partial curve].

With `CC(C)Oc1ccc(C(=O)Nc2nnc(C3=COCCO3)o2)cc1`, the cell number change worked out at 3.83%. Moreover, the AC50 under setting [2] is 6.51 µM [falling, single point].

With `NC(=O)c1nsc(C(=O)N(c2cccc(F)c2)C(C(=O)NC2CCCC2)c2ccco2)c1N` (stereo not drawn), the cell number change was found to be 2.08%.

For `N#C/C(=C/c1ccc(-c2ccccc2[N+](=O)[O-])o1)C(N)=O`, the cell number change is -5.41%.

Take `CCOC(=O)N1CCN(C(=O)Cn2cc3c(n2)CCCC3)CC1`: the cell number change is -3.92%.

For the molecule `CCn1c(C)cc(C(=O)CSc2nnc(-c3ccco3)o2)c1C`, the cell number change stood at 6.47%. Moreover, under setting [2], the AC50 is 0.00461 µM [rising, full curve, poor fit].

Turning to `O=C(O)c1ccc(N2C(=O)c3cccc4c(C(=O)O)ccc(c34)C2=O)cc1`, the cell number change is -28.7%. Under setting [1], the AC50 was 0.82 µM [falling, full curve, poor fit]. The AC50 under setting [2] was 0.731 µM [falling, full curve, poor fit].

As to `COc1cc(COCC(O)CN2CCN(Cc3ccc4c(c3)OCO4)CC2)cc(OC)c1OC` (stereo not drawn), the AC50 under setting [1] was 0.146 µM [rising, single point].

Consider `Cc1cccc(NC(=O)NNC(=O)COc2ccc(Cl)cc2)c1`, for which the cell number change is 10.5%.

Consider `Cc1ccc(S(=O)(=O)N(C)C)cc1NC(=S)Nc1cccc2ccccc12`, for which the cell number change was determined as 21.4%. For the same molecule, the AC50 under setting [2] was 29.1 µM [rising, single point].

With `Nc1cccc(N2C(=O)c3cccc4c(N)ccc(c34)C2=O)c1`, the cell number change is -78.4%. For the same molecule, the AC50 under setting [1] is 29.1 µM [falling, single point]. The half-maximal activity concentration (AC50) under setting [2] was 29.1 µM [falling, single point].

For the molecule `CC1Cc2ccccc2N1C(=O)CN1CCN(S(=O)(=O)c2cccs2)CC1` (stereo not drawn), the cell number change was 3.8%.

As to `COc1ccc(CCNC(=O)Cn2nnc(-c3ccc(OC)c(OC)c3)n2)cc1OC`, the cell number change is -40.5%. Also, the AC50 under setting [1] was 9.2 µM [falling, partial curve]. Under setting [2], the AC50 is 13 µM [falling, partial curve].

As to `Cn1c(CSCc2ccc(F)cc2)nnc1SCC(=O)N1CCN(c2ccccc2)CC1`, the cell number change was -42.9%. Moreover, the AC50 under setting [1] was 16.4 µM [falling, partial curve]. Moreover, the AC50 under setting [2] was 18.4 µM [falling, partial curve].

As to `C/C(=N\NC(=O)C1(C)CC1(Br)Br)c1ccc([N+](=O)[O-])cc1` (stereo not drawn), the cell number change was -10.5%. Also, under setting [2], the AC50 was 0.326 µM [rising, single point].

Take `CCN1CCN(S(=O)(=O)c2ccc(Cl)c(C(=O)N(C)CCOc3ccc(Cl)cc3)c2)CC1`: the cell number change is 1.72%. Besides, under setting [2], the AC50 is 6.51 µM [rising, single point].

Regarding `Cc1ccc(S(=O)(=O)Nc2nc(C)c(C(=O)NNS(=O)(=O)c3cc(C)ccc3C)s2)cc1`, the cell number change is -14.6%. Moreover, under setting [2], the AC50 is 29.1 µM [rising, single point].

Consider `CCOc1ccc(S(=O)(=O)N2CCC(C(=O)NCc3cccnc3)CC2)cc1Cl`, for which the cell number change was -10.5%. In addition, under setting [2], the AC50 is 5.62 µM [falling, single point].

As to `Nc1cccc(-c2cc(-c3ccccc3)nc(-c3cccc(N)c3)n2)c1`, the cell number change was 1.5%. Also, under setting [2], the AC50 was 0.0731 µM [rising, full curve, poor fit].

For `Cn1c(SCC(=O)Nc2ccc3c(c2)OCO3)nnc1-c1cnccn1`, the AC50 under setting [2] is 0.092 µM [rising, full curve, poor fit].

For the molecule `COc1ccc(OCC(=O)Nc2ccccc2N2CCCCC2)cc1`, the cell number change amounted to 34.1%. Further, the AC50 under setting [1] was 29.1 µM [rising, single point].

For `CNc1ccccc1NC(=O)C1CCCN1C(=O)OCc1ccccc1` (stereo not drawn), the cell number change worked out at 36.6%. Also, the AC50 under setting [2] is 29.1 µM [rising, single point].

As to `COc1ccccc1Oc1nnnn1-c1ccc(C(N)=O)cc1`, under setting [2], the AC50 was 6.51 µM [rising, single point].

`CCOc1ccc(S(=O)(=O)N2CCN(C(=O)CN3C(=O)NC(C)(C)C3=O)CC2)cc1`: the cell number change was found to be 17.9%. Besides, the AC50 under setting [2] is 29.1 µM [rising, single point].

In the case of `Cc1ccc(S(=O)(=O)N2CCN(C(=O)COC(=O)c3c(C)noc3C)CC2)c(C)c1`, the cell number change stood at 0.334%. For the same molecule, the AC50 under setting [2] is 0.184 µM [falling, full curve, poor fit].

For the molecule `Cc1ccc(NC(=O)COC(=O)CCC(=O)c2cccs2)c(Br)c1`, the cell number change is -0.903%. Under setting [2], the AC50 is 0.0259 µM [rising, full curve, poor fit].

As for `COc1cccc(CNC(=O)c2ccc3c(c2)N(C)CCS3)c1OC`, the cell number change came to 7.78%. In addition, under setting [2], the AC50 is 9.2 µM [falling, partial curve].

In the case of `CCC(CC)NC(=O)C1CCN(c2ccc(S(=O)(=O)N3CCOCC3)cc2[N+](=O)[O-])CC1`, the cell number change is -21.4%. Moreover, the AC50 under setting [2] is 0.00411 µM [rising, full curve, poor fit].

Take `O=C(N/N=C\c1ccc([N+](=O)[O-])o1)C1COc2ccccc2O1` (stereo not drawn): the cell number change was -52.6%. Also, the AC50 under setting [1] was 6.51 µM [falling, partial curve]. Under setting [2], the AC50 is 3.26 µM [falling, full curve].

`CCOc1ccccc1OCC(=O)Nc1cccc(S(=O)(=O)NC2=NCCCCC2)c1`: the cell number change came out at 21.9%. The AC50 under setting [2] is 29.1 µM [rising, single point].
